The numbers were not newly measured in patent EP0331471A1, “High molecular weight prodrug derivatives of antiinflammatory drugs” (Larsen, Claus Selch, priority 1988, dated 1989), which cites them from elsewhere.

Structures are written as SMILES. Where two headings read alike, the source gives them in different places.

For the data set the following is noted: pigs, from a previous study (8), cited from earlier work.
The mark [1] stands for this setting: i.v., 3.6 mg naproxen equivalents.

In the case of `COc1ccc2cc([C@H](C)C(=O)O)ccc2c1` [NAPROXEN, (+)-2-(6-methoxy-2-napthyl)propionic acid], under setting [1], the AUC was 479 µg·h/mL and the Cmax was 35000 ng/mL. In addition, the Cmax (naproxen in plasma, p.o., 3.6 mg naproxen equivalents) was 19700 ng/mL. Moreover, for the setting “naproxen in plasma, p.o.”, the AUC is 439 µg·h/mL and the Tmax is listed as 2 h.

In general, AUC refers to the area under the concentration-time curve, a measure of exposure. The Cmax is the peak of the concentration-time curve. As a reminder, the Tmax is the time from dosing to the highest level.
